In article PMC8874600:

Columns and labels:
[1] = target: T1, RBE fused to the N-terminus of YFP (RBE in pBS:35S:nYFP) (Arabidopsis thaliana) (UniProt Q9LHS9); assay: split reporter; BiFC with MAC5A-cYFP and RBE-nYFP in onion epidermal cells after bombardment; YFP fluorescence
T1 sequence: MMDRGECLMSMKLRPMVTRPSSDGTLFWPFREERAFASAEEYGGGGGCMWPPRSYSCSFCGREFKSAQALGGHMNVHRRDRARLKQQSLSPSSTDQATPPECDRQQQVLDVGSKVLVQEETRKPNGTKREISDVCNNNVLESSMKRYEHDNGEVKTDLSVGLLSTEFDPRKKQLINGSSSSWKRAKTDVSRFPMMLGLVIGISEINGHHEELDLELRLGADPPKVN

[2] = target: T2, RABBIT EARS (RBE), bait BD-RBE (Arabidopsis thaliana) (UniProt Q9LHS9); assay: two-hybrid; bait BD-RBE (pGBKT7) and prey AD-MAC5A (pGADT7) cotransformed into yeast strain AH109; growth on SD/-Ade/-His/-Leu/-Trp (QDO) medium, 30 °C, three to five days; empty vectors as negative controls
T2 sequence: T1 sequence

| Substance | binding [1] | binding [2] |
| --- | --- | --- |
| MAC5A fused to the C-terminus of YFP (MAC5A in pBS:35S:cYFP) (Arabidopsis thaliana) | binds |  |
| MOS4-ASSOCIATED COMPLEX 5A (MAC5A), prey AD-MAC5A (Arabidopsis thaliana) |  | binds |

These are yes or no findings as the source states them, for the method shown. Binding can be weak; no strength is given. Tags and fused reporters may be left off the sequences shown. For some assays here: Binding seen in cells or lysates may run through a third protein.
